Measured values published in PubChem BioAssay AID1469 (National Center for Advancing Translational Sciences (NCATS), 2008).
The whole screen tested about 280,000 compounds, of which about 180 (0.064%) were called active. Inconclusive results, whose numbers are uncertain, are shown with a selection of clear calls. Calls follow the shape of the dose curve; as a rule, active = well fitted inhibition curve with a large enough effect; inconclusive = small, poorly fitted or top-dose-only effect, or effect the other way; inactive = flat fitted curve, though single readings scatter. A potency beside an inconclusive call is a rough fit, not a confirmed value.

By UniProt entry, the sequences of proteins in these tests, tags left out. Where a name states a change or a piece, a line headed by the entry shows the natural chain unless it says otherwise.
UniProt P10828: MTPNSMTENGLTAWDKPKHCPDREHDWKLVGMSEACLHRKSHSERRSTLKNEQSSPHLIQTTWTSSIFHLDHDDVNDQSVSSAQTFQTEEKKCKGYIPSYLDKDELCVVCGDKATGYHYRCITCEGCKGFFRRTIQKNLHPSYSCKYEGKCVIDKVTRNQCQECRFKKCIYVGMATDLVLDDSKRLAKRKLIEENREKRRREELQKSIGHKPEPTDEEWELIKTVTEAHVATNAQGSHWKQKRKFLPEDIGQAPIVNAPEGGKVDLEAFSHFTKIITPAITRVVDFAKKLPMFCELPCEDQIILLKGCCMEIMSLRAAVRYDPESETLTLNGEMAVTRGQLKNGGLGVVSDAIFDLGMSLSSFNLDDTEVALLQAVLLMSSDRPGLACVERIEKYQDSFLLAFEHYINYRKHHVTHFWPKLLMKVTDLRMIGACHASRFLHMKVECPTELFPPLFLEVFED

What follows are compounds tested against Thyroid hormone receptor beta (Homo sapiens) (UniProt P10828) (assay: qHTS for Inhibitors of the Interaction of Thyroid Hormone Receptor and Steroid Receptor Coregulator 2). Conditions: TRbeta-SRC2 peptide binding, fluorescence polarization, receptor liganded with 1 µM T3; series mostly up to 106 µM.
In short: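 Human TRb ligand-binding domain (0.6 uM) is mixed with 20 nM Texas Red SRC2 peptide and 1 uM T3; after compound addition and 5 hr at ambient temperature, polarization is measured and normalized to unbound and bound controls.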
Also: nearly all actives have a fitted effect of over 50% in size.
Potency is read from the fitted curve at half-maximal effect.

| SMILES | Potency |
| --- | --- |
| CSc1nsc(/C=C/Nc2ccc(O)cc2C)c1C#N | active: 44.7 µM |
| O=C1N=C(N2CCOCC2)S/C1=C/c1cc2c(cc1[N+](=O)[O-])OCO2 | inconclusive: 35.5 µM [inhibitor, partial curve] |
| CC(C)N1CC2=C(OC(N)=C(C#N)C2c2cccnc2)/C(=C/c2cccnc2)C1 (centres undefined) | active: 44.7 µM |
| O=c1cc(-c2ccc(O)c(-c3c(O)cc(O)c4c(=O)cc(-c5ccc(O)cc5)oc34)c2)oc2cc(O)cc(O)c12 | inconclusive: 56.2 µM [activator, single point] |
| CCN(CC)c1ccc(N=Cc2c(C)[nH]c3ccccc23)cc1 | inconclusive: 35.5 µM [inhibitor, partial curve, poor fit] |
| CNC(=O)c1ccc2snnc2c1 | inconclusive: 17.8 µM [inhibitor, full curve, poor fit] |
| C=C[C@@]1(C)CC(=O)[C@]2(O)[C@@]3(C)[C@H](O)CCC(C)(C)[C@@H]3[C@H](O)[C@H](OC(C)=O)[C@@]2(C)O1 | inactive |
| O=C(OCCN1C(=O)c2cccc3c(N4CCOCC4)ccc(c23)C1=O)c1ccc(Cl)cc1 | inconclusive: 89.1 µM [inhibitor, partial curve, poor fit] |
| Cc1oc2c(c1C(=O)c1ccc(Cl)cc1)C(=O)C(=O)c1ccccc1-2 | inconclusive: 20 µM [inhibitor, full curve] |
| CC[n+]1ccc(/C=C2\Sc3ccccc3N2CCCS(=O)(=O)[O-])c2ccccc21 | inactive |
| Cc1ccc(N(Cc2cccs2)C(=O)c2ccc(OC(C)C)cc2)cc1 | inactive |
| COc1cccc(C(=O)Nc2cccc(C(=O)NC3=NN(c4c(Cl)cc(Cl)cc4Cl)C(=O)C3)c2)c1 | inconclusive: 50.1 µM [activator, partial curve, poor fit] |
| Cc1ccc(CNC(=O)C2CCN(C(=O)N3CC(C)Oc4ccc(Cl)cc43)CC2)cc1 (centres undefined) | inactive |
| Cc1cc(/C=C/c2ccc3cc(N(C)C)ccc3[n+]2C)c(C)n1-c1ccccc1 | inconclusive: 22.4 µM [activator, full curve] |
| CC(=O)Nc1cccc(-c2nnc(SCC(=O)c3cc([N+](=O)[O-])ccc3Cl)o2)c1 | inactive |
| CCCCOc1cccc(C2c3c(-c4cc(C)ccc4O)n[nH]c3C(=O)N2CCOC)c1 (centres undefined) | inactive |
| CC(=O)NNc1cc(N2CCOCC2)nc(N2CCOCC2)n1 | active: 28.2 µM |
| Cn1nnc(NC(=S)NC(=O)c2ccco2)n1 | inconclusive: 6.31 µM [activator, partial curve] |
| CCCc1cc(=O)[nH]c(SCC(=O)Nc2ccc3c(c2)CCC3)n1 | inactive |

Quoted at random: 2 records from the list, in no set order.

| SMILES | Potency |
| --- | --- |
| CC(=O)NNc1cc(N2CCOCC2)nc(N2CCOCC2)n1 | active: 28.2 µM |
| CC(C)N1CC2=C(OC(N)=C(C#N)C2c2cccnc2)/C(=C/c2cccnc2)C1 (centres undefined) | active: 44.7 µM |
